Values of other authors as cited in patent US20150216167A1 (Heinrich Heine Universitat Dusseldorf, priority 2011, published 2015).
At least one structure is not confirmed: it was looked up by name or label, or the drawing left a doubt.

Key:
[1] = cited from earlier work
PEP carboxylase = conditions: Pairoba et al. (1996); cited from earlier work

Structure (SMILES)	cytotoxic activity [1]	inhibition of PEP carboxylase from C4 plant Amaranthus viridis (PEP carboxylase)
C/C=C(\C)c1cc(O)c(C)c2c1Oc1cc(O)cc(C)c1C(=O)O2 [unguinol]	cytotoxic activity	–
C[C@@H]1O[C@@H](OC[C@H]2O[C@@H](Oc3c(-c4ccc(O)c(O)c4)oc4cc(O)cc(O)c4c3=O)[C@H](O)[C@@H](O)[C@@H]2O)[C@H](O)[C@H](O)[C@H]1O [rutin]	–	inhibited
